Test results from the supplement of paper PMC6821926, “Diaminoquinazoline MMV675968 from Pathogen Box inhibits Acinetobacter baumannii growth through targeting of dihydrofolate reductase” (Scientific Reports, 2019).
± gives the uncertainty stated by the source. This is one part of the list.

Key:
[1] = system: Acinetobacter baumannii Mahidol; assay: percent growth relative to DMSO-treated control; higher = less growth inhibition; details: 10 µM; 18 h
[2] = system: Acinetobacter baumannii Naval-81; assay: as above; details: 10 µM; 18 h

Structure (SMILES)	percent growth [1] [%]	percent growth [2] [%]
CC1COC(Cn2cncn2)(c2ccc(Oc3ccc(Cl)cc3)cc2Cl)O1 (stereo not drawn)	90.6 ± 14	52.5 ± 24
CO/C=C(/C(=O)OC)c1ccccc1Oc1cc(Oc2ccccc2C#N)ncn1	125 ± 17	85.9 ± 21
Nc1c2c(nc3sc4c(c13)CCCC4)CCCC2	106 ± 16	104 ± 35
Cc1cccc(C(=O)Nc2ccnc(N(C)C3CCN(CC(C)C)CC3)c2)c1	87.1 ± 11	80.2 ± 7.9
Cc1nn(Cc2ccccc2)c(Cl)c1C(=O)NC1CCCCCC1	91.8 ± 43	82.3 ± 13
CC1(C)OB(O)c2ccc(C3=NOC(c4cc(Cl)c(F)c(Cl)c4)(C(F)(F)F)C3)cc21 (stereo not drawn)	84 ± 16	50.5 ± 47
Cc1cc(C2=NOC(c3cc(Cl)c(F)c(Cl)c3)(C(F)(F)F)C2)ccc1C(=O)NCc1ccc2c(c1)C(C)(C)OB2O (stereo not drawn)	85.8 ± 34	84.9 ± 14
O=C1O[C@@H](COc2ccon2)CN1c1cc(F)c(C2=CCN(Cc3ccccc3)CC2)c(F)c1	98.7 ± 5.3	79.7 ± 5.4
CC(C)(C)C(O)C(Oc1ccc(-c2ccccc2)cc1)n1cncn1 (stereo not drawn)	95.3 ± 12	113 ± 32
CO/N=C(\C(=O)OC)c1ccccc1CO/N=C(\C)c1cccc(C(F)(F)F)c1	99.8 ± 4.4	90.1 ± 14
Cc1nn(C)c(C)c1NS(=O)(=O)c1c(Cl)cc(-c2ccnc(N3CCNCC3)c2)cc1Cl	99.5 ± 7.1	103 ± 4
CO[C@@H]1CN(c2ccc(C#CC3(O)CN4CCC3CC4)c(Cc3ccccc3)n2)C[C@H]1O (stereo partly drawn)	107 ± 8.6	71 ± 41
CCc1nn(C)c(C(=O)NCc2ccc(Oc3ccc(C)cc3)cc2)c1Cl	71.2 ± 32	89 ± 2.9
O=C1O[C@@H](CO)CN1c1cc(F)c(C2=CCN(Cc3ccccc3)CC2)c(F)c1	96.3 ± 3.9	97.9 ± 16

Full records as entered above:
`CO[C@@H]1CN(c2ccc(C#CC3(O)CN4CCC3CC4)c(Cc3ccccc3)n2)C[C@H]1O` (stereo partly drawn) as listed: percent growth [1] [%]: 107 ± 8.6; percent growth [2] [%]: 71 ± 41
`Cc1cc(C2=NOC(c3cc(Cl)c(F)c(Cl)c3)(C(F)(F)F)C2)ccc1C(=O)NCc1ccc2c(c1)C(C)(C)OB2O` (stereo not drawn) as listed: percent growth [1] [%]: 85.8 ± 34; percent growth [2] [%]: 84.9 ± 14
